From PubChem BioAssay AID901 (National Center for Advancing Translational Sciences (NCATS), 2007)
Some of the results follow. Shown are side measurements of this screen, not its main read-out; they come without a call. Most of these compounds were active or inconclusive in the main read-out, so they are no random draw. Words in brackets tell the shape of the fitted curve; partial curves, single points and poor fits give uncertain potencies.

Test: qHTS Assay for Identifying the Cell-Membrane Permeable IMPase Inhibitors
Conditions: CHO-M1 cells, IP1 accumulation, HTRF TR-FRET ratio; measured here: donor channel 620 nm AC50

SMILES | AC50
O=C1CC(c2cccc(O)c2)c2cc3c(cc2N1)OCO3 (configuration not stated) | 35.5 µM [falling, single point]
CC(C)OC(=O)c1c(NC(=O)COc2cccc(Br)c2)sc2c1CCCC2 | 3.55 µM [rising, partial curve]
Cc1ccc(NC(=O)c2c(-c3c(F)cccc3Cl)noc2C)cc1F | 20 µM [rising, single point]
CCCn1c(NC(=O)c2ccc(Br)cc2)nc2ccccc21 | 31.6 µM [rising, single point]
COc1c(C(=O)Nc2c(C)n(C)n(-c3ccccc3)c2=O)ccc2ccccc12 | 15.8 µM [rising, single point]
O=C(CN1C(=O)CCC1=O)NCC12CC3CC(CC(C3)C1)C2 | 0.447 µM [rising, full curve, poor fit]
CSCC[C@H](NC(=O)Nc1ccc(C)cc1C)C(=O)O | 0.0631 µM [rising, partial curve, poor fit]
COc1cc2ccccc2cc1C(=O)Nc1ccc2oc(-c3ccc(Cl)cc3)nc2c1 | 0.00562 µM [falling, full curve, poor fit]
CC(C)C(=O)Nc1cccc(NC(=O)CCN2C(=O)c3ccccc3S2(=O)=O)c1 | 2 µM [falling, partial curve, poor fit]
CC(C)(C)C1CCc2onc(C(=O)N3CCOCC3)c2C1 (configuration not stated) | 3.16 µM [rising, single point]
CCOC(=O)CSc1nc(-c2ccccc2)nc2ccc(F)cc12 | 0.794 µM [rising, full curve, poor fit]
CC(=O)Nc1ccc(NC(=O)C2CCCN(c3ncccn3)C2)cc1 (configuration not stated) | 3.16 µM [falling, single point]
CNC(=O)Cc1csc2ccc(Cl)cc12 | 3.98 µM [falling, single point]
CN(C)c1ccc(/C=C/c2cc[n+](C)cc2)cc1 | 12.6 µM [falling, partial curve]
O=C1c2ccccc2-c2onc3ccc(NCc4ccco4)c1c23 | 20 µM [falling, partial curve]
CC(C)=CCC(C)(C)CNC(=O)NC1CCCCC1 | 3.16 µM [rising, single point]
CCCC/C(C)=N/NC(=O)c1cn(-c2ccccc2)nc1-c1ccccc1 | 11.2 µM [falling, partial curve, poor fit]
CN1CCN(/N=C/c2nc(-c3cccc([N+](=O)[O-])c3)n3ccccc23)CC1 | 10 µM [falling, partial curve]
O=C(COc1ccccc1)NCC1CCCO1 (configuration not stated) | 0.158 µM [falling, full curve]
COCCNC(=S)N1CCOCC1 | 35.5 µM [rising, single point]
N=C1C=CC=C2C1=NC1(CCCCC1)N2O | 10 µM [falling, single point]
Cc1ccc(-c2nc3cccnc3o2)cc1NC(=O)COc1ccc(Cl)cc1C | 25.1 µM [falling, single point]
COc1ccc(CNc2nc3ccccc3n2CCN2CCOCC2)cc1 | 1 µM [rising, full curve, poor fit]

SMILES | AC50
CCC(C)[C@@H](NC(=O)OC(C)(C)C)c1nnc(S(=O)(=O)Cc2cccc(C)c2)o1 (some centres not stated) | 5.01 µM [falling, single point]
O=C(CN1N=C(C(F)(F)F)CC1(O)c1ccc([N+](=O)[O-])cc1)c1ccccc1 (configuration not stated) | 0.794 µM [falling, full curve, poor fit]
CCCc1nnc(NC(=O)CCC(=O)N2CCCCCC2)s1 | 0.316 µM [falling, partial curve, poor fit]
CN(C)CC[C@H](c1ccc(Cl)cc1)c1ccccn1 | 0.01 µM [rising, full curve, poor fit]
CCOC(=O)N1CCC(N(CCOC)C(=O)Nc2ccc(CC)cc2)CC1 | 5.01 µM [rising, single point]
COc1ccc2[nH]c(=O)c(CN(C(C)=O)C3CCCCC3)cc2c1 | 0.631 µM [rising, partial curve, poor fit]
Cc1ccccc1OCCN1C(=O)NC2(CCCc3ccccc32)C1=O (configuration not stated) | 0.0158 µM [falling, full curve, poor fit]
COc1ccccc1N1CCN(C(=O)c2cc(-c3cccc(Cl)c3)on2)CC1 | 0.631 µM [falling, full curve, poor fit]
CC(C)(C)n1nnnc1C(c1cccnc1)N(Cc1ccccc1)Cc1cccs1 (configuration not stated) | 15.8 µM [rising, partial curve, poor fit]
CCN(CC)S(=O)(=O)c1cccc(-c2nnc(SCc3nnc(-c4cccs4)o3)n2N)c1 | 3.98 µM [falling, single point]
CCCCc1ccc(C2C(C#N)=C(N)SC(N)=C2C#N)s1 | 12.6 µM [falling, single point]
COCC(C)n1c(SCc2nc(N)nc(Nc3ccccc3C)n2)nc2ccccc2c1=O (configuration not stated) | 3.16 µM [falling, partial curve]
Cc1ccc2c(c1)c(=O)c1ccccc1n2CCCC(=O)Nc1ccc(Cl)cc1C | 35.5 µM [falling, single point]
CC(=O)c1ccc(-n2c(SCC(=O)c3c[nH]c4ccccc34)nc3ccccc3c2=O)cc1 | 5.62 µM [rising, single point]
Cc1c(-c2ccccc2)oc2nc3c(c(=O)n(C)c(=O)n3C)n12 | 0.398 µM [falling, full curve]
COc1ccc(CCNC(=O)CSc2nc(O)c(C(C)C)c(=O)[nH]2)cc1OC | 31.6 µM [falling, single point]
Cc1ccc(-c2cc(C(=O)NCCCn3ccnc3)c3cc(Br)ccc3n2)o1 | 12.6 µM [rising, single point]
CCOc1cc(NC(=O)c2ccco2)c(OCC)cc1NC(=O)c1cc(OC)c(OC)c(OC)c1 | 0.0316 µM [falling, full curve, poor fit]
C=CCC(CC=C)(C(=O)O)c1ccccc1 | 1.12 µM [falling, full curve, poor fit]
COc1ccc(Cn2ccnc2)cc1Br | 10 µM [rising, partial curve]
COCCn1c(C)cc(C2=NNC(=Nc3ccc(F)cc3)SC2)c1C | 3.16 µM [rising, single point]
O=C(C1=C(O)C(=O)N(CCCN2CCOCC2)C1c1ccccn1)c1cc2ccccc2o1 (configuration not stated) | 10 µM [rising, partial curve]
COCCN1C(=O)C(=O)/C(=C(/O)c2ccc3c(c2)OCCO3)C1c1ccc(C(=O)OC)cc1 (configuration not stated) | 20 µM [rising, partial curve]

SMILES | AC50
Cc1cc2cc(CN(Cc3cccs3)C(c3nnnn3C(C)(C)C)C(C)C)c3nnnn3c2cc1C (configuration not stated) | 5.62 µM [rising, single point]
CCN(CC)C(=O)c1ccc(Nc2nnc(C)c3ccccc23)cc1 | 3.16 µM [falling, single point]
COc1ccccc1NC(=O)c1ccc(S(=O)(=O)N2CCOCC2)cc1 | 6.31 µM [falling, single point]
CNc1nc(-c2ccccc2)nc(-c2ccccc2)c1C#N | 25.1 µM [rising, single point]
CCOC(=O)c1c(NC(=O)c2ccc(Br)o2)sc(C)c1CC | 3.98 µM [falling, partial curve]
Cc1cc(C(=O)Nc2ccc(S(=O)(=O)Nc3nccs3)cc2)c(C)o1 | 35.5 µM [falling, single point]
COc1cc(O)c(C(C)=O)cc1OC | 6.31 µM [falling, single point]
CCC(C)NC(=O)CCSc1nc(-c2ccc(OC)cc2)cc(C(F)(F)F)n1 (configuration not stated) | 35.5 µM [rising, single point]
O=C(C1=C(O)C(=O)N(c2ncccn2)C1c1ccc(Cl)cc1)c1ccco1 (configuration not stated) | 12.6 µM [rising, partial curve]
COCCN(CCOC)Cc1cc(=O)oc2cc3c(cc12)CCC3 | 0.0501 µM [rising, partial curve, poor fit]
Cc1ccc(CN2C(=O)C3CCCN3c3ccc(C#N)cc32)cc1 (configuration not stated) | 0.01 µM [rising, full curve, poor fit]
COc1ccc(-c2cn3ccsc3n2)cc1 | 0.794 µM [falling, partial curve]
Nc1[nH]nc2nc3ccccc3nc12 | 15.8 µM [falling, partial curve]
Cc1ccccc1NC(=O)C1(NC(=O)c2cccc(N3C(=O)CSC3c3ccccc3)c2)CCCCC1 (configuration not stated) | 5.01 µM [falling, partial curve]
CCCC1CCC(C(=O)Nn2c(C)nc3ccccc3c2=O)CC1 (configuration not stated) | 0.631 µM [falling, full curve]
Cc1sc(-c2ccccn2)nc1OC(=O)c1ccc(Cl)c(Cl)c1 | 0.00316 µM [rising, full curve, poor fit]
CCOC(=O)C1CCN(C(=O)COc2ccc(S(=O)(=O)NC(C)C)cc2Cl)CC1 | 3.98 µM [rising, single point]
Cc1ccc(C(=O)Nc2nnc(-c3ccc(C(C)(C)C)cc3)s2)cc1 | 0.316 µM [rising, full curve, poor fit]
O=c1oc2ccccc2c2c1SC(C(F)(F)F)C2 (configuration not stated) | 5.01 µM [falling, single point]
CCN1CCN(C(=O)CS(=O)(=O)Cc2nc(-c3ccc(C)cc3)oc2C)CC1 | 2.82 µM [falling, partial curve]
O=C(NCc1cccs1)c1nc2c(nnn2Cc2ccc(F)cc2)c(=O)[nH]1 | 0.158 µM [falling, full curve]

Quoted at random: 4 records from the list.
SMILES | AC50
COc1cc2ccccc2cc1C(=O)Nc1ccc2oc(-c3ccc(Cl)cc3)nc2c1 | 0.00562 µM [falling, full curve, poor fit]
CC(C)(C)n1nnnc1C(c1cccnc1)N(Cc1ccccc1)Cc1cccs1 (configuration not stated) | 15.8 µM [rising, partial curve, poor fit]
Cc1sc(-c2ccccn2)nc1OC(=O)c1ccc(Cl)c(Cl)c1 | 0.00316 µM [rising, full curve, poor fit]
CCOC(=O)C1CCN(C(=O)COc2ccc(S(=O)(=O)NC(C)C)cc2Cl)CC1 | 3.98 µM [rising, single point]
